No constants are given. Whether binding was seen depends on the method and setting. Some results given as binding are weak or reduced against the parent protein; the word gives no strength.

The target of this assay is T1, REV1, yeast two-hybrid construct (UniProt Q9UBZ9).
T1 sequence: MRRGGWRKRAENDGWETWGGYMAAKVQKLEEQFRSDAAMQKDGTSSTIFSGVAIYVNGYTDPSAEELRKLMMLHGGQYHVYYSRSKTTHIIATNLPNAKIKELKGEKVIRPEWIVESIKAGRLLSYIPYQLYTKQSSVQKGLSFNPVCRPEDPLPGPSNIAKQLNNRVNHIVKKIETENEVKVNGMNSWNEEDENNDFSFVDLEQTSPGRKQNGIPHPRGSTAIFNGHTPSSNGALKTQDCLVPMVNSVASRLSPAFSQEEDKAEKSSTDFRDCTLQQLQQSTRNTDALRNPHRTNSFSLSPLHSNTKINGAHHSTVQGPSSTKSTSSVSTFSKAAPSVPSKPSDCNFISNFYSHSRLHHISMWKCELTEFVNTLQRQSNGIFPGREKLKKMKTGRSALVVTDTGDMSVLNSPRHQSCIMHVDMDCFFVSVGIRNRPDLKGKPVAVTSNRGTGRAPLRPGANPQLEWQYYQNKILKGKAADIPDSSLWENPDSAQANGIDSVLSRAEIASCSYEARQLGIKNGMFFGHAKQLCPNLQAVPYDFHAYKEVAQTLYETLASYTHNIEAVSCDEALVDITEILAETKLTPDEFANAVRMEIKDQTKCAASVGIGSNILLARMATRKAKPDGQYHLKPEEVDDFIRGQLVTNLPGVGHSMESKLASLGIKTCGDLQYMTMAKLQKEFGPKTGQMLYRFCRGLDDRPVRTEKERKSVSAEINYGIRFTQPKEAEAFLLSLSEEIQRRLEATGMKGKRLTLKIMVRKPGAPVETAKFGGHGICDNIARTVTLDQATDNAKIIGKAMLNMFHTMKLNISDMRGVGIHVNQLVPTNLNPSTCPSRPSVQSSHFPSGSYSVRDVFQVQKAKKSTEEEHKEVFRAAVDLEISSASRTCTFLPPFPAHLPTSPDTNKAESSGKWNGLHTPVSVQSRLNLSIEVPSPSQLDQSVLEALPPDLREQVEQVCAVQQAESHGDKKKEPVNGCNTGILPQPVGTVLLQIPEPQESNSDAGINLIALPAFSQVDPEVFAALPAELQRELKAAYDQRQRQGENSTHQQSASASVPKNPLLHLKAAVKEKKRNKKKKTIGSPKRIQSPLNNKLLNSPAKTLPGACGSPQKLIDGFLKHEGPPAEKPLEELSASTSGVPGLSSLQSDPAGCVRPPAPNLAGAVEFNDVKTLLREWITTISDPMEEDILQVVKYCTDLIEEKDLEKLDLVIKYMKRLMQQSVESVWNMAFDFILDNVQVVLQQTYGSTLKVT
Put plainly: two-hybrid; yeast two-hybrid assays (Supplementary Figures S1 and S5); bait and prey not given.

B1: DNA polymerase η (Polη), yeast two-hybrid construct (enzyme, UniProt Q9Y253 1-713)
chain: MATGQDRVVALVDMDCFFVQVEQRQNPHLRNKPCAVVQYKSWKGGGIIAVSYEARAFGVTRSMWADDAKKLCPDLLLAQVRESRGKANLTKYREASVEVMEIMSRFAVIERASIDEAYVDLTSAVQERLQKLQGQPISADLLPSTYIEGLPQGPTTAEETVQKEGMRKQGLFQWLDSLQIDNLTSPDLQLTVGAVIVEEMRAAIERETGFQCSAGISHNKVLAKLACGLNKPNRQTLVSHGSVPQLFSQMPIRKIRSLGGKLGASVIEILGIEYMGELTQFTESQLQSHFGEKNGSWLYAMCRGIEHDPVKPRQLPKTIGCSKNFPGKTALATREQVQWWLLQLAQELEERLTKDRNDNDRVATQLVVSIRVQGDKRLSSLRRCCALTRYDAHKMSHDAFTVIKNCNTSGIQTEWSPPLTMLFLCATKFSASAPSSSTDITSFLSSDPSSLPKVPVTSSEAKTQGSGPAVTATKKATTSLESFFQKAAERQKVKEASLSSLTAPTQAPMSNSPSKPSLPFQTSQSTGTEPFFKQKSLLLKQKQLNNSSVSSPQQNPWSNCKALPNSLPTEYPGCVPVCEGVSKLEESSKATPAEMDLAHNSQSMHASSASKSVLEVTQKATPNPSLLAAEDQVPCEKCGSLVPVWDMPEHMDYHFALELQKSFLQPHSSNPQVVSAVSHQGKRNPKSPLACTNKRPRPEGMQTLESFFKPLTH
For B1, the binding entry is “binds”.

For the origin of these results see article PMC4652755.
